# Assay results from patent US6593098.
# Amino acid sequences for entries named in this document (tags omitted). A change or cut given only in a name is not applied to a line headed by its entry.
# UniProt O43683: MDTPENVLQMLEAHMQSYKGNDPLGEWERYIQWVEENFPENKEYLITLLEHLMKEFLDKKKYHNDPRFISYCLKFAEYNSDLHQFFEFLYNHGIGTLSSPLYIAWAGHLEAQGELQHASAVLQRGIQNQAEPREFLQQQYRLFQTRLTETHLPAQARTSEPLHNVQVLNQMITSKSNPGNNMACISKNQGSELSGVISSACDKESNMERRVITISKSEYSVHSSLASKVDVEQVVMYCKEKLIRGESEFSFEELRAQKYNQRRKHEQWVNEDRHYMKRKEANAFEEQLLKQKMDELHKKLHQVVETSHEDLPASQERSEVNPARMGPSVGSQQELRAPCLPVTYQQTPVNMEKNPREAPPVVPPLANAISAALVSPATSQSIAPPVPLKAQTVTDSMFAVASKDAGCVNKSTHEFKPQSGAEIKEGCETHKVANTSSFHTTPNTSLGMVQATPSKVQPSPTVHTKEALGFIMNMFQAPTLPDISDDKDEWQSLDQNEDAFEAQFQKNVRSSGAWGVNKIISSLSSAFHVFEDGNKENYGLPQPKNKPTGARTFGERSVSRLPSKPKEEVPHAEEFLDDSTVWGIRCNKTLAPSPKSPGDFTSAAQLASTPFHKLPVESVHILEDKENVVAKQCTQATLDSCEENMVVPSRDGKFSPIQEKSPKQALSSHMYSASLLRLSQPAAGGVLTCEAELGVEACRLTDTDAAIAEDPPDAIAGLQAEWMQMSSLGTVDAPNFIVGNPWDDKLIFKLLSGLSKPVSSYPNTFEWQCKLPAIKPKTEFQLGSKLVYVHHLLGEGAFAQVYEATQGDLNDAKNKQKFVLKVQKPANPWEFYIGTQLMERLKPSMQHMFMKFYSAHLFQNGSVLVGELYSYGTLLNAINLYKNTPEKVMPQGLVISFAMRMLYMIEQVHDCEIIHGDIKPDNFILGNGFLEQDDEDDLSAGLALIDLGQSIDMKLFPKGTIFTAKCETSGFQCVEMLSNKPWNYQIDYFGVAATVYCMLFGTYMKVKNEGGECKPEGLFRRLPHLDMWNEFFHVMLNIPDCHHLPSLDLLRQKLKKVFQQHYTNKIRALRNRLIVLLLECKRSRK
# No constants are given. Whether binding was seen depends on the method and setting. Some entries that bind do so weakly or less than the wild type.
# Target: T1, CENP-F (UniProt P49454)
# T1 sequence (looked up): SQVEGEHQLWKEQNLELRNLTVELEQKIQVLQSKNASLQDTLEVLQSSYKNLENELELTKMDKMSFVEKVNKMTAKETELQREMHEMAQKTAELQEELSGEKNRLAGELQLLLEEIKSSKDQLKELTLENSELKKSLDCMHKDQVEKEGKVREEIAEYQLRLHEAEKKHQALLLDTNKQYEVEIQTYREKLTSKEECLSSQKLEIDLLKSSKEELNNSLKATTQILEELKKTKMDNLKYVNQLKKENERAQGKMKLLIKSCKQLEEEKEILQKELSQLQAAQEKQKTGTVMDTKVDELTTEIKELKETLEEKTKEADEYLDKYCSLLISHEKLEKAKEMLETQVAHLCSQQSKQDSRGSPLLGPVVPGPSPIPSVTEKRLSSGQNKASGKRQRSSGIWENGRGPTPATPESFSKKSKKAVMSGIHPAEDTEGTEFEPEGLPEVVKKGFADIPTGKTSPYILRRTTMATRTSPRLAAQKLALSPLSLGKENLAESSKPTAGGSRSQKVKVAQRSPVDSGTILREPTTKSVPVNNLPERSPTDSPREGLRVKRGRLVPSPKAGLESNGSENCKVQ
# Assay: specificity test, method not named in the sentence (probably yeast two-hybrid)
substance,measurement,value
human BUB1B kinase (from UniProt O43683 1-1085) (enzyme),binding,binds
